Data from PubChem BioAssay AID504467 (National Center for Advancing Translational Sciences (NCATS), 2011).
Out of some 330,000 compounds screened, about 7,700 (2.3%) were called active. The shares of active, inactive and inconclusive entries below differ from those in the screen. The call rests on the fitted dose curve; in most records, active means well fitted inhibition curve with a large enough effect; inconclusive means small, poorly fitted or top-dose-only effect, or effect the other way; inactive means flat fitted curve, though single readings scatter. Potencies beside an inconclusive call are fits to weak or partial responses and may not hold up.

Assay: qHTS screen for small molecules that inhibit ELG1-dependent DNA repair in human embryonic kidney (HEK293T) cells expressing luciferase-tagged ELG1; further: nearly all actives have a fitted effect of over 55% in size
Settings: HEK293T ELG1-luciferase reporter, luminescence, 16 h, DNA damage induced by 5-fluorouridine; series mostly up to 46.1 µM
Method in brief: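 Luminescence from the luciferase reporter, measured 30 min after ONE-Glo reagent at room temperature, was the read-out. Beforehand, 2,000 cells per well were exposed for 16 hr at 37 °C to 5-fluorouridine together with compound or vehicle.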
Potency means the concentration at half of the fitted maximal effect.

| Structure (SMILES) | Potency |
| --- | --- |
| COC(=O)c1ccc(OC)cc1OCC(=O)N1CCN(c2ccc(F)cc2)CC1 | inactive |
| CC(=O)C(C)n1c(CN2CCN(C(=O)c3ccco3)CC2)nc2c1c(=O)n(C)c(=O)n2C (centres undefined) | inconclusive: 20.6 µM [activator, single point] |
| C=CCn1cccc(C(=O)Nc2ccc(N(C)C)cc2)c1=O | inconclusive: 16.4 µM [activator, partial curve] |
| O=C(CN1CCN(C(=O)c2ccc(-c3nc4ccccc4s3)o2)CC1)Nc1ccc(F)cc1 | inconclusive: 20.6 µM [inhibitor, single point] |
| COC(=O)c1ccccc1NC(=O)C1COc2ccccc2O1 (centres undefined) | inactive |
| Cc1ccc(C)c(S(=O)(=O)N2CCN(C(C)C(=O)Nc3ccccc3-c3ccccc3)CC2)c1 (centres undefined) | inconclusive: 20.6 µM [inhibitor, single point] |
| CC#CC[N+](C)(C)CCCCCCCCCC | inconclusive: 5.8 µM [inhibitor, full curve] |
| CC1CCCC(C)N1C(=O)CSc1nc2ccccc2c(=O)[nH]1 (centres undefined) | inconclusive: 16.4 µM [activator, partial curve, poor fit] |
| COc1ccc(NC(=O)CN2CCC(C)CC2)cc1 | inconclusive: 23.1 µM [activator, single point] |
| COc1ccccc1N(C)S(=O)(=O)c1ccc(C(=O)Nc2cc(F)ccc2C)cc1 | active: 18.3 µM |
| COC(=O)c1ccc(OCC(O)CN(CCO)CCO)cc1 (centres undefined) | inactive |
| COc1ccccc1C1CCN(Cc2ccc(C)cc2)CC1 | inactive |
| COc1cccc(NC(=O)Cn2cc(C(=O)C3CC3)c3ccccc32)c1 | inconclusive: 25.9 µM [inhibitor, partial curve, poor fit] |
| CN(C)c1ccc(N=Nc2ccccc2C(=O)OCC(=O)N2CCCCCC2)cc1 | inconclusive: 29.1 µM [inhibitor, single point] |
| Cc1cc(OC(C)C(=O)N2CCN(c3ccccc3)CC2)c2c(C)c(C)c(=O)oc2c1 (centres undefined) | active: 16.4 µM |
| CCOC(=O)CCc1c(C)c2ccc(OCC(=O)N3CCOCC3)c(C)c2oc1=O | inconclusive: 25.9 µM [inhibitor, single point] |
| O=C1CCC(C(=O)N2CCCCO2)CN1Cc1cccc(F)c1 (centres undefined) | inconclusive: 29.1 µM [activator, single point] |
| CC(C)Cn1c(N)c(C(=O)COC(=O)c2cc(-c3ccco3)nc3ccccc23)c(=O)n(C)c1=O | inconclusive: 8.2 µM [inhibitor, partial curve] |
| Cc1ccc(N2CC(C(=O)Nc3cccnc3)CC2=O)cc1C (centres undefined) | inactive |

Some of the entries above in another layout:
Structure (SMILES),Potency
COC(=O)c1ccc(OC)cc1OCC(=O)N1CCN(c2ccc(F)cc2)CC1,inactive
CC(=O)C(C)n1c(CN2CCN(C(=O)c3ccco3)CC2)nc2c1c(=O)n(C)c(=O)n2C (centres undefined),"inconclusive: 20.6 µM [activator, single point]"
C=CCn1cccc(C(=O)Nc2ccc(N(C)C)cc2)c1=O,"inconclusive: 16.4 µM [activator, partial curve]"
O=C(CN1CCN(C(=O)c2ccc(-c3nc4ccccc4s3)o2)CC1)Nc1ccc(F)cc1,"inconclusive: 20.6 µM [inhibitor, single point]"
COC(=O)c1ccccc1NC(=O)C1COc2ccccc2O1 (centres undefined),inactive
